Record: PubChem BioAssay AID1259254 (NCATS, 2017)

- Assay: 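Genome-wide screen for genes that prevent DNA re-replication in cancer cells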 (primary screen)
- Cell system: human HCT116 colorectal cancer cells
- Reagents: single siRNA against human genes
- Duration: 3 days
- Measured: 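Nuclei stained with Hoechst and imaged; cell-cycle phase assigned by DNA content; G2 share scaled per plate, non-targeting siRNA 0%, GMNN siRNA 100%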
- Scale: G2 robust z-score and G2 cells, % of GMNN control: higher = more G2 cells, more excess DNA replication; raw share of cells in G2: higher = larger share of cells with G2 DNA content
- Hit rule: 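An siRNA counts as active if its G2 robust z-score lies at least 5 MADs above the screen median; here such calls match roughly 38% of GMNN control or more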
In all, the deposit lists about 59,000 reagents; shown is a part drawn at random. About 1,550 of them (2.6%) were called active. 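G2 share is only a proxy for re-replication; each gene was hit by three separate siRNAs, and active genes were retested.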 The raw values are shown without normalisation. Reagents against one gene are numbered here. No sequences are given here. Not stated in the record: the amount of reagent.

| gene | reagent no. | G2 robust z-score | G2 cells, % of GMNN control | raw share of cells in G2 (%) | outcome |
| --- | --- | --- | --- | --- | --- |
| TRARG1 | 1 | 0.311 | 5.16 | 5.52 | inactive |
| TRARG1 | 2 | 0.057 | 3.37 | 4.35 | inactive |
| TRARG1 | 3 | -0.701 | -1.96 | 2.67 | inactive |
| ZAP70 | 1 | 0.39 | 5.71 | 7.36 | inactive |
| ZAP70 | 2 | 0.999 | 9.99 | 8.83 | inactive |
| ZAP70 | 3 | -0.156 | 1.87 | 4.28 | inactive |
| KCNJ6 | 1 | -0.496 | -0.522 | 5.1 | inactive |
| KCNJ6 | 2 | 0.658 | 7.6 | 7.35 | inactive |
| KCNJ6 | 3 | 2.1 | 17.8 | 11.3 | inactive |
| RNF157 | 1 | -0.264 | 1.11 | 6.18 | inactive |
| RNF157 | 2 | 1.38 | 12.7 | 9.26 | inactive |
| RNF157 | 3 | -0.177 | 1.72 | 5.71 | inactive |
| CRYBG3 | 1 | -0.632 | -1.48 | 3.62 | inactive |
| CRYBG3 | 2 | 0.429 | 5.98 | 5 | inactive |
| CRYBG3 | 3 | -0.00357 | 2.94 | 3.65 | inactive |

Individual results from the entries so far:
RNF157 #2, outcome: inactive
TRARG1 #3, raw share of cells in G2 (%) → 2.67
CRYBG3 #3, G2 robust z-score = -0.00357

Additional entries:
| gene | reagent no. | G2 robust z-score | G2 cells, % of GMNN control | raw share of cells in G2 (%) | outcome |
| --- | --- | --- | --- | --- | --- |
| CLEC3B | 1 | 0.179 | 4.23 | 7.01 | inactive |
| CLEC3B | 2 | 6.3 | 47.3 | 22.6 | active |
| CLEC3B | 3 | -0.0312 | 2.75 | 4.32 | inactive |
| ADGRA2 | 1 | 2.25 | 18.8 | 12.6 | inactive |
| ADGRA2 | 2 | -1.01 | -4.12 | 3.08 | inactive |
| ADGRA2 | 3 | 4.5 | 34.6 | 13.9 | inactive |
| ZNF517 | 1 | -0.0308 | 2.75 | 4.04 | inactive |
| ZNF517 | 2 | 0.834 | 8.84 | 6.23 | inactive |
| ZNF517 | 3 | -0.26 | 1.14 | 3.92 | inactive |
| FGF12 | 1 | 1.77 | 15.4 | 12.5 | inactive |
| FGF12 | 2 | -0.37 | 0.366 | 4.22 | inactive |
| FGF12 | 3 | 0.877 | 9.14 | 7.1 | inactive |
| C1R | 1 | -0.765 | -2.41 | 4.72 | inactive |
| C1R | 2 | 0.505 | 6.52 | 7.21 | inactive |
| C1R | 3 | 2.08 | 17.6 | 10.5 | inactive |
